# From the supplement of paper PMC10849652
# Protein sequences, listed by entry. Tags and fused reporters are not part of them. Lines headed by an entry give the natural chain unless they say otherwise; changes in a name come on top.
# UniProt Q9H790: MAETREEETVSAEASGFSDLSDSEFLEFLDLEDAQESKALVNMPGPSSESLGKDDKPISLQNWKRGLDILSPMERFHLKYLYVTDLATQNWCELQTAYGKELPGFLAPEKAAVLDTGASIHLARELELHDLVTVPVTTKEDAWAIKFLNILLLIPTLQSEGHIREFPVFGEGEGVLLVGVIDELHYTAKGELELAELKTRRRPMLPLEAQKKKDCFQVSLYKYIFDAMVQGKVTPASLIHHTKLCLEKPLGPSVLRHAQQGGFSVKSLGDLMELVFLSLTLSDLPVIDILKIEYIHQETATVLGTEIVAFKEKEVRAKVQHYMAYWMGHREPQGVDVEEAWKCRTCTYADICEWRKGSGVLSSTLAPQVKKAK
# UniProt A2RU67: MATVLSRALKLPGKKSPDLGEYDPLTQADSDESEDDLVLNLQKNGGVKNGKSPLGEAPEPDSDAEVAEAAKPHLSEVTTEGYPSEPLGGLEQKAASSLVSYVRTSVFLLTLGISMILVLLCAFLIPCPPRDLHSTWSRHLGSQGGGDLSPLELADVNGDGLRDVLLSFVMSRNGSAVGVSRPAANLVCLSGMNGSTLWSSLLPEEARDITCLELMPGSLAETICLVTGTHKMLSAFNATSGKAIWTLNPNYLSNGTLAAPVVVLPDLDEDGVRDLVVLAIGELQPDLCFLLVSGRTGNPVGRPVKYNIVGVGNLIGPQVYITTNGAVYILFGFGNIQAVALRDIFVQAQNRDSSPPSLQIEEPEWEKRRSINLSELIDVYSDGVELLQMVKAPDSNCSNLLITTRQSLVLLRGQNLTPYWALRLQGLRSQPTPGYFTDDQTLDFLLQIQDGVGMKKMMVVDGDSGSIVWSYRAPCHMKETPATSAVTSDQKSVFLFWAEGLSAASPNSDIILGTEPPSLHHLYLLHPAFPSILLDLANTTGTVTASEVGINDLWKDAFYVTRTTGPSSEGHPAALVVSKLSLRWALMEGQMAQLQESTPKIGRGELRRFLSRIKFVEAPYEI
# UniProt Q6PEV8: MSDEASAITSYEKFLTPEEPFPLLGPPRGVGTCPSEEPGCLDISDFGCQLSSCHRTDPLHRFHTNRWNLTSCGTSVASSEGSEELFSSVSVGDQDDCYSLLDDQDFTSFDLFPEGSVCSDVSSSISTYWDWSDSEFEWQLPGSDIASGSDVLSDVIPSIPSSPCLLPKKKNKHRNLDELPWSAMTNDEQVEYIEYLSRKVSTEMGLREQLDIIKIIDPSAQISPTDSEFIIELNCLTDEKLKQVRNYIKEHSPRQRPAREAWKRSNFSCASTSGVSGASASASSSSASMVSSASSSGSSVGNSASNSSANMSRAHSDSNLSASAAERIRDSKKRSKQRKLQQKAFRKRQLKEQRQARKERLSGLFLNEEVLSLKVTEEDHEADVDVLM
# UniProt Q8WU58: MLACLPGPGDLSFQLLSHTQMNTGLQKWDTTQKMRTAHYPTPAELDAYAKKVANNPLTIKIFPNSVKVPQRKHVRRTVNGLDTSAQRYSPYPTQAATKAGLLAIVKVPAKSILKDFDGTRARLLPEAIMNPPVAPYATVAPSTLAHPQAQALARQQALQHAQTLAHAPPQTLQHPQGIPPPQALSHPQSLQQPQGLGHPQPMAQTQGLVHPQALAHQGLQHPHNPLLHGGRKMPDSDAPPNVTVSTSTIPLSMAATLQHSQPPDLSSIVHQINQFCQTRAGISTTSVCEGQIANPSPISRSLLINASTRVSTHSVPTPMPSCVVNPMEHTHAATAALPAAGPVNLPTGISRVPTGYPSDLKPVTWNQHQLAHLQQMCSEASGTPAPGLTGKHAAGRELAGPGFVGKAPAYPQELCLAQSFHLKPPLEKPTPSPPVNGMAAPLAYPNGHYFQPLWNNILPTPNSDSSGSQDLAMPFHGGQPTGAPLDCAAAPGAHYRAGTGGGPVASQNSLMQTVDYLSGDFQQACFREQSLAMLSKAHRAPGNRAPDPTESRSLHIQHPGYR
# UniProt Q9NVH0: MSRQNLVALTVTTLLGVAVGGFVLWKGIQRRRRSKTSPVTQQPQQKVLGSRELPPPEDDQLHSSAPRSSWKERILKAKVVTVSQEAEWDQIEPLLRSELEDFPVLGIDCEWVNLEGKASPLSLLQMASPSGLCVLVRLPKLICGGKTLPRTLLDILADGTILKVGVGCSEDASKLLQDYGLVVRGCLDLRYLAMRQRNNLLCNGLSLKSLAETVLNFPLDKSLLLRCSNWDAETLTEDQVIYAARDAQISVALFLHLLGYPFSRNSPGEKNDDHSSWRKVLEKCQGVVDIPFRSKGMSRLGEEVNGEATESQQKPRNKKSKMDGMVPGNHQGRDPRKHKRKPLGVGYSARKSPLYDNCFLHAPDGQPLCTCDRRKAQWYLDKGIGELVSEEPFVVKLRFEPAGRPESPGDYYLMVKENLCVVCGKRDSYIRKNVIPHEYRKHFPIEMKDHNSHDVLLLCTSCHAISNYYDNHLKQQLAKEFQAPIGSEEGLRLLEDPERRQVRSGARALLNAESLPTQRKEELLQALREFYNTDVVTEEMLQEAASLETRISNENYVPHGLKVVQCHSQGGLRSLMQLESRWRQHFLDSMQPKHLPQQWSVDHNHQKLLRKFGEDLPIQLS
# UniProt Q9NY74: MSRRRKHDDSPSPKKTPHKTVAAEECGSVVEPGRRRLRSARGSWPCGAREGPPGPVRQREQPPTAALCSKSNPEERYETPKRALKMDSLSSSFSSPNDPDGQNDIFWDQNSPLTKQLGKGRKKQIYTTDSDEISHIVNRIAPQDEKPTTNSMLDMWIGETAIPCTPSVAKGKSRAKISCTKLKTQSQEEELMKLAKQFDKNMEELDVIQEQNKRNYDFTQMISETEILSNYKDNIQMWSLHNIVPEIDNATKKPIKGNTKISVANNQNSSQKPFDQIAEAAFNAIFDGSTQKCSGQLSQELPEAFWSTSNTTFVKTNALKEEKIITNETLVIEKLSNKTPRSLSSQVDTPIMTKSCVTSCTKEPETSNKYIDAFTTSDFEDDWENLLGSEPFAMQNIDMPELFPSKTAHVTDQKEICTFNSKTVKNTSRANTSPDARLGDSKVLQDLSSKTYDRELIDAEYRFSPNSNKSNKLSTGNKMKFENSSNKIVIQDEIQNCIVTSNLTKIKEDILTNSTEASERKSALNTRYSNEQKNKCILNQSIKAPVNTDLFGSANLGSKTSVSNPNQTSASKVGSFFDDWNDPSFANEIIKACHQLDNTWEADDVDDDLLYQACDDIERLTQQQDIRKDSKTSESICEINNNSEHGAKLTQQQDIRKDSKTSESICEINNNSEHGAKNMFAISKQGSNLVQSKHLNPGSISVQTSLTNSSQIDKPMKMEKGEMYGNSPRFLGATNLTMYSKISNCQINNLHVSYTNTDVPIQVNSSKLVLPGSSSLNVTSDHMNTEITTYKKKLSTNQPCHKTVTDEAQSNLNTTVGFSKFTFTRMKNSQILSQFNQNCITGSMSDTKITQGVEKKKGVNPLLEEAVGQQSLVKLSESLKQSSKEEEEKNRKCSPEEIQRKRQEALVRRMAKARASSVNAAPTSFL
# UniProt P00742, whole entry, looked up: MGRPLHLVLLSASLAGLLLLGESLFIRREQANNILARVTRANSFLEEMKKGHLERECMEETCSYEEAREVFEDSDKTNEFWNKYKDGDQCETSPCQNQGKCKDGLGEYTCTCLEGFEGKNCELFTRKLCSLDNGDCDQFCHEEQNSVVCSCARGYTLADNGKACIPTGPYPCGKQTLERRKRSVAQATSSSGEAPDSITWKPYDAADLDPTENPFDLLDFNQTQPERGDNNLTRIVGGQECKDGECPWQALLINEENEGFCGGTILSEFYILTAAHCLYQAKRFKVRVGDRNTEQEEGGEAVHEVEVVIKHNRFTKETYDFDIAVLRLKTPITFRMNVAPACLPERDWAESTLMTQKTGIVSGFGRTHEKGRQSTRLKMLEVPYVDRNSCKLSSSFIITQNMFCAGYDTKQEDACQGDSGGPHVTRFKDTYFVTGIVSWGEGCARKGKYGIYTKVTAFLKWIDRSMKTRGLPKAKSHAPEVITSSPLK
# UniProt B1AK53: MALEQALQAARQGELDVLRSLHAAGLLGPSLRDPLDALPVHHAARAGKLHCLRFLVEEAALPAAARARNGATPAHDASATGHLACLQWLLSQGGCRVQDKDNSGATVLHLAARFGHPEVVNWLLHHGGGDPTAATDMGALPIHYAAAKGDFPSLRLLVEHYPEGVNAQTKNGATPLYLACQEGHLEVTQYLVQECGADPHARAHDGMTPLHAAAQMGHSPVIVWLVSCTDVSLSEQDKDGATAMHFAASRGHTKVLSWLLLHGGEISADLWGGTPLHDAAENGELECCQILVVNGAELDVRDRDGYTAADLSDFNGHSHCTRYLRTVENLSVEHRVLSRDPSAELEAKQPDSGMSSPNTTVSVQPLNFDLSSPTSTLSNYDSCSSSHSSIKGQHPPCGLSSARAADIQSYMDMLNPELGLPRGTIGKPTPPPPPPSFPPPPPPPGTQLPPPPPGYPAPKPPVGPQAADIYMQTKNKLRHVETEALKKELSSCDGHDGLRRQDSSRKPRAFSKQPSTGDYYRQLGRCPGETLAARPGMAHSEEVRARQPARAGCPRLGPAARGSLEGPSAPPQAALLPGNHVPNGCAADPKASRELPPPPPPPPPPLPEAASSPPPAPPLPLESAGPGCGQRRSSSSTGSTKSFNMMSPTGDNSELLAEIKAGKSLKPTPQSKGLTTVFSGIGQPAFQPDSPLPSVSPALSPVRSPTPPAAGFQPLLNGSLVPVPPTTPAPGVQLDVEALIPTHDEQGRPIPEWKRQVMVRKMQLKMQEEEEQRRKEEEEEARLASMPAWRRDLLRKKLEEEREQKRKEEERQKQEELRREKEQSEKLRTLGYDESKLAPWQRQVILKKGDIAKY
# UniProt Q969W3: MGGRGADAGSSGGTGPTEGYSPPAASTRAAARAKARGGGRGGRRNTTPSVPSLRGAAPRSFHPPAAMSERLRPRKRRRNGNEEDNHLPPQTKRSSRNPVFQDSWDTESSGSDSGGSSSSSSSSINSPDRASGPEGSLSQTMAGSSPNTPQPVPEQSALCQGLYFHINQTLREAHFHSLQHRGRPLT
# UniProt Q8IXR5: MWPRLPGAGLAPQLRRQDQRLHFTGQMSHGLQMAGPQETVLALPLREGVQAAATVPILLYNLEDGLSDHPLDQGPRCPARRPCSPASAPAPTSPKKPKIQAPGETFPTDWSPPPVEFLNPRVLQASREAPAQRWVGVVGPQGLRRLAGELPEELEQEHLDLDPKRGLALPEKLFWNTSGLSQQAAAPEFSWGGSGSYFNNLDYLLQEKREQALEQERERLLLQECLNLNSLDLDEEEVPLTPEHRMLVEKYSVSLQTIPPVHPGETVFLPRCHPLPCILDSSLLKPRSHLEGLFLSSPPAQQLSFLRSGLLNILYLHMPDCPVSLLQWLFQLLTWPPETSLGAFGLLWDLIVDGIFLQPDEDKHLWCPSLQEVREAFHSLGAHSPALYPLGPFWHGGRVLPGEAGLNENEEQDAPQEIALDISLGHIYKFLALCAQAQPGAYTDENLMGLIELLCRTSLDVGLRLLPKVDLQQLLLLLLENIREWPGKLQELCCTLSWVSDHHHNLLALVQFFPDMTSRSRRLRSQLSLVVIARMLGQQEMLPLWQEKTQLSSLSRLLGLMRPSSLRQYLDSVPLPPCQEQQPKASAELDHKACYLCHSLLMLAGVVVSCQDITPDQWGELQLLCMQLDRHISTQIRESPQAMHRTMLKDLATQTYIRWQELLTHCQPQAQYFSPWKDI
# UniProt Q96CN4: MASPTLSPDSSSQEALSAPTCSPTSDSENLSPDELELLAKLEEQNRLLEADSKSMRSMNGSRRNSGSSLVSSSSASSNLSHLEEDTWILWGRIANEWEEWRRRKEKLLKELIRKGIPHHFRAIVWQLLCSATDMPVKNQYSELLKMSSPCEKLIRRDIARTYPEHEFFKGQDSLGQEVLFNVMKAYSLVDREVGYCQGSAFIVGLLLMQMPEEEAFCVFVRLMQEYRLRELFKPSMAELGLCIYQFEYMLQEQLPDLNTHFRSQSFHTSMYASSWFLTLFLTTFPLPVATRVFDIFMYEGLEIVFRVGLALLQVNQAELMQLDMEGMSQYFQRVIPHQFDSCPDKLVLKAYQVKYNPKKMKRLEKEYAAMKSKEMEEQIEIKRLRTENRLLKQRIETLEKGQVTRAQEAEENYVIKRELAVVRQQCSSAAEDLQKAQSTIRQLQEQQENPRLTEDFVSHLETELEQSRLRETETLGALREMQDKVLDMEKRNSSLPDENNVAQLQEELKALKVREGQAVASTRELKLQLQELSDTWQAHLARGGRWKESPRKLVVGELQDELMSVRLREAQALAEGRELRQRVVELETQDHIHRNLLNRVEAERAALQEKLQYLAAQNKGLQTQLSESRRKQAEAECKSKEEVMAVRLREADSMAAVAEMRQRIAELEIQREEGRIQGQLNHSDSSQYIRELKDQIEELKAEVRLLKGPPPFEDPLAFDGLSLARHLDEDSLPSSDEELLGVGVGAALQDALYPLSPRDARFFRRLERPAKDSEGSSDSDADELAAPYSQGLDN
# The list shows a part of the results.
# Columns and labels:
# Experiment in all cases: log2 fold change, soluble protein after heating vs DMSO (PISA); higher = thermal stabilisation; K562 lysate, 10 uM; active = over 0.2 and 3.5 SD of the protein, either way, in both replicates (recomputed)
# [1] = compound: NC1(c2ccc(-c3nc4ccn5c(=O)[nH]nc5c4cc3-c3ccccc3)cc2)CCC1
# Procedure, shortened: (§1)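 Dounce homogenisation of K562 pellets in PBS pH 7.4 with 1 mM MgCl2 produced a crude extract, used at 1 mg/mL protein. Exposure to 10 μM compound lasted 30 min, and aliquots were then heated for 3 min across 48°C-58°C, pooled and brought to 0.5% NP-40 at 4°C. The supernatant after 21,000xg for 90 min was quantified by TMTpro 16plex LC-MS/MS with channel sums equalised. Duplicate values are given as log-two fold change in thermal stability relative to solvent controls.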
# pictilisib = compound: CS(=O)(=O)N1CCN(Cc2cc3nc(-c4cccc5[nH]ncc45)nc(N4CCOCC4)c3s2)CC1 [pictilisib]
# Procedure, shortened: as §1
# crizotinib = compound: C[C@@H](Oc1cc(-c2cnn(C3CCNCC3)c2)cnc1N)c1c(Cl)ccc(F)c1Cl [crizotinib]
# Procedure, shortened: as §1
# doramapimod = compound: Cc1ccc(-n2nc(C(C)(C)C)cc2NC(=O)Nc2ccc(OCCN3CCOCC3)c3ccccc23)cc1 [doramapimod]
# Procedure, shortened: as §1
# bafetinib = compound: Cc1ccc(NC(=O)c2ccc(CN3CC[C@H](N(C)C)C3)c(C(F)(F)F)c2)cc1Nc1nccc(-c2cncnc2)n1 [bafetinib]
# Procedure, shortened: as §1
# quisinostat = compound: Cn1cc(CNCC2CCN(c3ncc(C(=O)NO)cn3)CC2)c2ccccc21 [quisinostat]
# Procedure, shortened: as §1
# [2] = compound: NC(=O)Nc1cc(-c2cccc(F)c2)sc1C(=O)N[C@H]1CCCNC1
# Procedure, shortened: as §1
# tozasertib = compound: Cc1cc(Nc2cc(N3CCN(C)CC3)nc(Sc3ccc(NC(=O)C4CC4)cc3)n2)n[nH]1 [tozasertib]
# Procedure, shortened: as §1
# [3] = compound: C[C@H](C1=CC=C(C=C1)C(=O)NC2=C3C=CNC3=NC=C2)N
# Procedure, shortened: as §1
# gandotinib = compound: Cc1cc(Nc2cc(CN3CCOCC3)c3nc(C)c(Cc4ccc(Cl)cc4F)n3n2)n[nH]1 [gandotinib]
# Procedure, shortened: as §1
# [4] = compound: Cc1cccc(CC(=O)N2CCc3c2ccc(-c2cn(C)c4ncnc(N)c24)c3F)n1
# Procedure, shortened: as §1
# nilotinib = compound: Cc1cn(-c2cc(NC(=O)c3ccc(C)c(Nc4nccc(-c5cccnc5)n4)c3)cc(C(F)(F)F)c2)cn1 [nilotinib]
# Procedure, shortened: as §1
# [5] = compound: Cc1nc(Nc2n[nH]c3c2CN(C(=O)N[C@H](CN(C)C)c2ccccc2)C3(C)C)c2sccc2n1
# Procedure, shortened: as §1
# [6] = compound: Cc1ncc(-c2ccnc(Nc3ccc(S(C)(=O)=O)cc3)n2)n1C(C)C
# Procedure, shortened: as §1
# tipifarnib = compound: Cn1cncc1[C@@](N)(c1ccc(Cl)cc1)c1ccc2c(c1)c(-c1cccc(Cl)c1)cc(=O)n2C [tipifarnib]
# Procedure, shortened: as §1
# duvelisib = compound: C[C@H](Nc1ncnc2nc[nH]c12)c1cc2cccc(Cl)c2c(=O)n1-c1ccccc1 [duvelisib]
# Procedure, shortened: as §1
# dasatinib = compound: Cc1nc(Nc2ncc(C(=O)Nc3c(C)cccc3Cl)s2)cc(N2CCN(CCO)CC2)n1 [dasatinib]
# Procedure, shortened: as §1
# [7] = compound: Cn1cc(-c2ccc3c(c2)CCN3C(=O)Cc2cccc(C(F)(F)F)c2)c2c(N)ncnc21
# Procedure, shortened: as §1
# lapatinib = compound: CS(=O)(=O)CCNCc1ccc(-c2ccc3ncnc(Nc4ccc(OCc5cccc(F)c5)c(Cl)c4)c3c2)o1 [lapatinib]
# Procedure, shortened: as §1
# [8] = compound: NC(=O)c1cnc(N[C@@H]2CCCC[C@@H]2N)nc1Nc1cccc(-n2nccn2)c1
# Procedure, shortened: as §1
target,measurement,setting,value
FAM171A2 (UniProt A8MVW0),log2 fold change,[1],inactive: -0.138
EXO5 (UniProt Q9H790),log2 fold change,pictilisib,active: -0.43
same,log2 fold change,crizotinib,inactive: -0.113
same,log2 fold change,doramapimod,inactive: 0.061
same,log2 fold change,bafetinib,inactive: -0.261
same,log2 fold change,quisinostat,inactive: -0.082
same,log2 fold change,[2],inactive: -0.071
same,log2 fold change,[1],inactive: 0.08
ETV3 (UniProt P41162),log2 fold change,tozasertib,inactive: -0.051
ETV4 (UniProt P43268),log2 fold change,crizotinib,inactive: 0.068
same,log2 fold change,[3],inactive: -0.008
same,log2 fold change,gandotinib,inactive: -0.151
same,log2 fold change,tozasertib,inactive: -0.137
same,log2 fold change,doramapimod,inactive: 0.029
same,log2 fold change,[4],inactive: -0.011
same,log2 fold change,nilotinib,inactive: 0.113
same,log2 fold change,[5],inactive: -0.064
same,log2 fold change,[6],inactive: 0.039
same,log2 fold change,quisinostat,inactive: 0.079
same,log2 fold change,tipifarnib,inactive: -0.035
same,log2 fold change,[2],inactive: 0.085
same,log2 fold change,[1],inactive: -0.13
FAM135A (UniProt Q9P2D6),log2 fold change,pictilisib,inactive: -0.031
same,log2 fold change,crizotinib,inactive: -0.13
same,log2 fold change,[3],inactive: 0.01
same,log2 fold change,duvelisib,inactive: 0.06
same,log2 fold change,gandotinib,inactive: 0.069
same,log2 fold change,doramapimod,inactive: -0.036
same,log2 fold change,bafetinib,inactive: -0.248
same,log2 fold change,[4],inactive: 0.071
same,log2 fold change,nilotinib,inactive: 0.122
same,log2 fold change,[5],inactive: -0.173
same,log2 fold change,dasatinib,inactive: 0.083
same,log2 fold change,[6],inactive: 0.19
same,log2 fold change,[7],inactive: 0.093
same,log2 fold change,quisinostat,inactive: -0.029
same,log2 fold change,tipifarnib,inactive: 0.042
same,log2 fold change,[2],inactive: -0.084
FAM234B (UniProt A2RU67),log2 fold change,lapatinib,inactive: -0.032
same,log2 fold change,[8],inactive: -0.046
FAM199X (UniProt Q6PEV8),log2 fold change,crizotinib,inactive: -0.054
same,log2 fold change,doramapimod,inactive: -0.138
same,log2 fold change,quisinostat,inactive: -0.052
same,log2 fold change,[2],inactive: 0.034
FAM222B (UniProt Q8WU58),log2 fold change,pictilisib,inactive: -0.104
same,log2 fold change,crizotinib,inactive: 0.052
same,log2 fold change,duvelisib,inactive: -0.02
same,log2 fold change,tozasertib,inactive: -0.115
same,log2 fold change,doramapimod,inactive: 0.061
same,log2 fold change,bafetinib,inactive: 0.044
same,log2 fold change,nilotinib,inactive: -0.078
same,log2 fold change,[5],inactive: 0.115
same,log2 fold change,dasatinib,inactive: -0.018
same,log2 fold change,[6],inactive: 0.092
same,log2 fold change,[7],inactive: 0.041
same,log2 fold change,quisinostat,inactive: -0.004
same,log2 fold change,tipifarnib,inactive: 0.124
same,log2 fold change,[2],inactive: -0.075
same,log2 fold change,[1],inactive: 0.022
EXD2 (UniProt Q9NVH0),log2 fold change,crizotinib,inactive: -0.012
same,log2 fold change,duvelisib,inactive: 0.068
same,log2 fold change,doramapimod,inactive: -0.11
same,log2 fold change,dasatinib,inactive: -0.072
same,log2 fold change,[7],inactive: 0.046
same,log2 fold change,quisinostat,inactive: 0.079
same,log2 fold change,[2],inactive: 0.065
same,log2 fold change,[1],inactive: -0.041
ETAA1 (UniProt Q9NY74),log2 fold change,tozasertib,inactive: 0.034
same,log2 fold change,[1],inactive: -0.152
FAM13A (UniProt O94988),log2 fold change,crizotinib,inactive: -0.064
same,log2 fold change,duvelisib,inactive: 0.18
same,log2 fold change,doramapimod,inactive: -0.018
same,log2 fold change,dasatinib,inactive: 0.193
same,log2 fold change,[7],inactive: -0.088
same,log2 fold change,quisinostat,inactive: -0.141
same,log2 fold change,[2],inactive: -0.016
FAAP20 isoform 2 (UniProt Q6NZ36),log2 fold change,crizotinib,inactive: -0.063
same,log2 fold change,[3],inactive: 0.017
same,log2 fold change,gandotinib,inactive: -0.048
same,log2 fold change,doramapimod,inactive: -0.064
same,log2 fold change,[4],inactive: -0.02
same,log2 fold change,quisinostat,inactive: 0.057
same,log2 fold change,[2],inactive: -0.038
"FAM120A, A0A494C0Y9",log2 fold change,duvelisib,inactive: 0.11
same,log2 fold change,dasatinib,inactive: -0.061
same,log2 fold change,[7],inactive: -0.145
same,log2 fold change,[1],inactive: 0.071
F10 (UniProt P00742),log2 fold change,pictilisib,inactive: -0.049
same,log2 fold change,bafetinib,inactive: -0.146
ESPN (UniProt B1AK53),log2 fold change,duvelisib,inactive: -0.114
same,log2 fold change,tozasertib,inactive: -0.1
same,log2 fold change,dasatinib,inactive: 0.025
same,log2 fold change,[7],inactive: 0
FAM72C (UniProt H0Y354),log2 fold change,[3],inactive: 0.148
same,log2 fold change,gandotinib,inactive: 0.182
same,log2 fold change,[4],inactive: 0.003
FAM3A (UniProt Q9BU27),log2 fold change,duvelisib,inactive: -0.152
same,log2 fold change,nilotinib,inactive: -0.054
same,log2 fold change,[5],inactive: 0.039
same,log2 fold change,dasatinib,inactive: -0.3
same,log2 fold change,[6],inactive: -0.194
same,log2 fold change,[7],inactive: 0.085
same,log2 fold change,tipifarnib,inactive: 0.088
FAM104A isoform 2 (UniProt Q969W3),log2 fold change,pictilisib,inactive: -0.066
same,log2 fold change,duvelisib,inactive: 0.022
same,log2 fold change,bafetinib,inactive: -0.047
same,log2 fold change,dasatinib,inactive: -0.825
same,log2 fold change,[7],inactive: 0.57
"FAM49B, A0A1W2PRQ0",log2 fold change,pictilisib,inactive: -0.101
same,log2 fold change,tozasertib,inactive: -0.102
same,log2 fold change,bafetinib,inactive: -0.135
FAM219B (UniProt Q5XKK7),log2 fold change,pictilisib,inactive: 0.137
same,log2 fold change,crizotinib,inactive: -0.15
same,log2 fold change,[3],inactive: 0.113
same,log2 fold change,gandotinib,inactive: -0.14
same,log2 fold change,doramapimod,inactive: -0.02
same,log2 fold change,bafetinib,inactive: -0.074
same,log2 fold change,[4],inactive: -0.041
same,log2 fold change,quisinostat,inactive: -0.169
same,log2 fold change,[2],inactive: 0.04
FAM178B (UniProt Q8IXR5),log2 fold change,crizotinib,inactive: 0.022
same,log2 fold change,tozasertib,inactive: 0.053
same,log2 fold change,doramapimod,inactive: -0.003
same,log2 fold change,quisinostat,inactive: 0.084
same,log2 fold change,[2],inactive: -0.031
EVI5L isoform 2 (UniProt Q96CN4),log2 fold change,[3],inactive: 0.022
same,log2 fold change,gandotinib,inactive: 0.062
same,log2 fold change,[4],inactive: 0.049
FAM53B (UniProt Q14153),log2 fold change,pictilisib,inactive: 0.02
same,log2 fold change,crizotinib,inactive: -0.03
same,log2 fold change,[3],inactive: -0.032
same,log2 fold change,duvelisib,inactive: 0.079
same,log2 fold change,gandotinib,inactive: 0.037
same,log2 fold change,tozasertib,inactive: 0.024
same,log2 fold change,doramapimod,inactive: 0.169
same,log2 fold change,bafetinib,inactive: -0.023
same,log2 fold change,[4],inactive: 0.083
same,log2 fold change,nilotinib,inactive: 0.015
same,log2 fold change,[5],inactive: 0.013
same,log2 fold change,dasatinib,inactive: 0.036
same,log2 fold change,[6],inactive: 0.004
same,log2 fold change,[7],inactive: 0.14
same,log2 fold change,quisinostat,inactive: -0.078
same,log2 fold change,tipifarnib,inactive: -0.013
same,log2 fold change,[2],inactive: 0.093
same,log2 fold change,[1],inactive: 0.042

# Pulled one by one from the list above (5):
target,measurement,setting,value
FAM3A (UniProt Q9BU27),log2 fold change,[6],inactive: -0.194
ETV4 (UniProt P43268),log2 fold change,[5],inactive: -0.064
FAM104A isoform 2 (UniProt Q969W3),log2 fold change,duvelisib,inactive: 0.022
FAM199X (UniProt Q6PEV8),log2 fold change,[2],inactive: 0.034
FAM13A (UniProt O94988),log2 fold change,[2],inactive: -0.016

# A different layout for some results above.
target	measurement	setting	value
FAM53B (UniProt Q14153)	log2 fold change	[6]	inactive: 0.004
same	log2 fold change	[7]	inactive: 0.14
same	log2 fold change	quisinostat	inactive: -0.078
